Reference: PubChem BioAssay AID1347135 (National Center for Advancing Translational Sciences (NCATS), 2019)
Inconclusive means that the source gave no clear call. Where the call is inconclusive, the potency comes from a doubtful curve fit.

Assay: qHTS of pediatric cancer cell lines to identify multiple opportunities for drug repurposing: Orthogonal 3D viability screen for SK-N-SH cells
Settings: SK-N-SH 3D spheroid viability, PI/Hoechst imaging, 72 h; active means well fitted inhibition curve with a large enough effect; inconclusive means small, poorly fitted or top-dose-only effect; inactive means flat fitted curve, though single readings scatter
Text: Drug repurposing or repositioning has been offered as a strategy for drug development in oncology programs. This approach has special potential for childhood cancers and other rare or orphan diseases, where the expected return on new drug development has been a disincentive to pharmaceuticals. […] In this project we exploit the poly-pharmacology of drugs to discover new indications via phenotypic screening of a panel of 19 well-characterized cell lines derived from solid tumors seen in children and adolescents. The goal is to identify approved drugs with previously unrecognized anticancer properties that has the potential to reveal new mechanisms and biological processes involved in carcinogenesis or drug resistance. We employed a titration-based paradigm (quantitative high-throughput screening or qHTS), where all compounds were tested at multiple concentrations for their effect on cell viability. […] Assay Submitter: Nathalia J. Martinez, National Center for Advancing Translational Sciences, National Institutes of Health, Rockville, MD, USA; email: natalia.martinez@nih.gov Shen, M et al. Quantitative high-throughput phenotypic screening of pediatric cancer cell lines identifies multiple opportunities for drug repurposing. […]

Q: For `C[C@@H]1C[C@@H]([C@H](O)CC2CC(=O)NC(=O)C2)C(=O)[C@@H](C)C1`, which Potency is on record?
A: inconclusive: 909 nM [inhibitor, full curve]
